The source of these data is the supplement of paper PMC10849652.

Amino acid sequences for entries named in this document (tags omitted). A change or cut given only in a name is not applied to a line headed by its entry.
UniProt Q9UH92: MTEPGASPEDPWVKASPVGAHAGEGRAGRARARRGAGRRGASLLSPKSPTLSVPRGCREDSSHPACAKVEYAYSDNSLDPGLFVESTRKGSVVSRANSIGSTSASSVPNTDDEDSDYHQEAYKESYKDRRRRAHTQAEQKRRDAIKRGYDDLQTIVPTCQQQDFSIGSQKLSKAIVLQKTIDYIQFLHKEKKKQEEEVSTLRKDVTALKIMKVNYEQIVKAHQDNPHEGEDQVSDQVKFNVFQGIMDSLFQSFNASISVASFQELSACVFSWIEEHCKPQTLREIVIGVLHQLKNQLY
UniProt P34949: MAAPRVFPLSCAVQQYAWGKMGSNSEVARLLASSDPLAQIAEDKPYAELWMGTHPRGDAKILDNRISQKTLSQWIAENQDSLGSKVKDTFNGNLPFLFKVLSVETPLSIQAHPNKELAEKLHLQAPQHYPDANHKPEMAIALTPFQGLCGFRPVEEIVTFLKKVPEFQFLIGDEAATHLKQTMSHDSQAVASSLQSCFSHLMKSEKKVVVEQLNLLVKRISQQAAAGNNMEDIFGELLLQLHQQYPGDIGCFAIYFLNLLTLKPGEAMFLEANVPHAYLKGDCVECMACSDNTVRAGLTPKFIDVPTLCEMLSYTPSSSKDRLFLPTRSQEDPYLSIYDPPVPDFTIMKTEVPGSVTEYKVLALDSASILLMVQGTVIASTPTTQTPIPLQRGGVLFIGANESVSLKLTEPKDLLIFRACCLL
UniProt Q9BU76: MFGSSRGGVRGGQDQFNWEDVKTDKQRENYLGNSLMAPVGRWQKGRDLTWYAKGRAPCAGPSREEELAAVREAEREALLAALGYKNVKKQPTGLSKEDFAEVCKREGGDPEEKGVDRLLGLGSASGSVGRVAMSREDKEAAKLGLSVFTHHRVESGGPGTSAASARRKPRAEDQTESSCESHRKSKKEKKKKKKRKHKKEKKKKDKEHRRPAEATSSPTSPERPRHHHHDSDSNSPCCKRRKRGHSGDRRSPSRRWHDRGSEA
UniProt P25325: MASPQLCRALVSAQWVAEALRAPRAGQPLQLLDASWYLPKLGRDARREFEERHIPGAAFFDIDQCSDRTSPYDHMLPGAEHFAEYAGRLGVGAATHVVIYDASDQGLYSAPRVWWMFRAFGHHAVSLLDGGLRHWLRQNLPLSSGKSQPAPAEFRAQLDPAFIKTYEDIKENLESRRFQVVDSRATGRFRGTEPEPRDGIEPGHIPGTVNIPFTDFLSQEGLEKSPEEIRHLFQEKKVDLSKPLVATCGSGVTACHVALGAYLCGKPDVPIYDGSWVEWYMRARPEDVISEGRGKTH
UniProt Q5TGZ0: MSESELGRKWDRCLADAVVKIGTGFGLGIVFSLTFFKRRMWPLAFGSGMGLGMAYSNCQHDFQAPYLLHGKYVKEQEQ
UniProt Q96PC5: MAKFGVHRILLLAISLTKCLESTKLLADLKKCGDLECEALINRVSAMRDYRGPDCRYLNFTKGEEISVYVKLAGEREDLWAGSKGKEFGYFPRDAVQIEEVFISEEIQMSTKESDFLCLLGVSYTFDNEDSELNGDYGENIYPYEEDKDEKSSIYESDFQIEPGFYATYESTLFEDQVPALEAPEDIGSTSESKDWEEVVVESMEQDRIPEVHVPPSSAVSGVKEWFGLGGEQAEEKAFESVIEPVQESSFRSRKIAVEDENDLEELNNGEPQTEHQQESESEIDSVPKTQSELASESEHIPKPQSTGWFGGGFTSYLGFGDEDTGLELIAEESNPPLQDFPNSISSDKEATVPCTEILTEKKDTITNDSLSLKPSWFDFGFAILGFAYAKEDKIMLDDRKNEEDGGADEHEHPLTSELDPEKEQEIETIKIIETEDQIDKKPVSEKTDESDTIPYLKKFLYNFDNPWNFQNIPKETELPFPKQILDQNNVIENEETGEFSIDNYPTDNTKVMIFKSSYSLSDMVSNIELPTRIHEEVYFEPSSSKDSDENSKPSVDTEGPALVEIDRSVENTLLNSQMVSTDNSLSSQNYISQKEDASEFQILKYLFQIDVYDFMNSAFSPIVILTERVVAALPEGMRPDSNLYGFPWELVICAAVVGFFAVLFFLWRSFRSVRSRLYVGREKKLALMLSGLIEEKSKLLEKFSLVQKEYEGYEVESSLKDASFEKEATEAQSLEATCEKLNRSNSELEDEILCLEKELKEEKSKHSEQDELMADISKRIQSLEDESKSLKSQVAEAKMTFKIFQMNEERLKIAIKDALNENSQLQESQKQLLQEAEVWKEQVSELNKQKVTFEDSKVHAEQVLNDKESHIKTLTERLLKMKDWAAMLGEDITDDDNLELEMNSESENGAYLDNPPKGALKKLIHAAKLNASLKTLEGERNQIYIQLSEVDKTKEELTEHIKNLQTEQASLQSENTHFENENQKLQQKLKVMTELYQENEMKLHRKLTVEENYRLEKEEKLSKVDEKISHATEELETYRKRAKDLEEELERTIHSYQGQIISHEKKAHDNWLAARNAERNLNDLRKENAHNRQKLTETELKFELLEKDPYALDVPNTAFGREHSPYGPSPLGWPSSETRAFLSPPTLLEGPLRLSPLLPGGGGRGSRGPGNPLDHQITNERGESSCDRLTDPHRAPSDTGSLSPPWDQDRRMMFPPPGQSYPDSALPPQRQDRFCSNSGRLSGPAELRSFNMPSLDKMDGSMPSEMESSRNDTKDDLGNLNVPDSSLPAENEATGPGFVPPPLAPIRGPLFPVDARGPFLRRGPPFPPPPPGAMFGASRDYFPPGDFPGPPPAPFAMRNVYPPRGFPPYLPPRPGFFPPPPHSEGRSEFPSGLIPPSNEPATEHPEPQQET
UniProt P46013: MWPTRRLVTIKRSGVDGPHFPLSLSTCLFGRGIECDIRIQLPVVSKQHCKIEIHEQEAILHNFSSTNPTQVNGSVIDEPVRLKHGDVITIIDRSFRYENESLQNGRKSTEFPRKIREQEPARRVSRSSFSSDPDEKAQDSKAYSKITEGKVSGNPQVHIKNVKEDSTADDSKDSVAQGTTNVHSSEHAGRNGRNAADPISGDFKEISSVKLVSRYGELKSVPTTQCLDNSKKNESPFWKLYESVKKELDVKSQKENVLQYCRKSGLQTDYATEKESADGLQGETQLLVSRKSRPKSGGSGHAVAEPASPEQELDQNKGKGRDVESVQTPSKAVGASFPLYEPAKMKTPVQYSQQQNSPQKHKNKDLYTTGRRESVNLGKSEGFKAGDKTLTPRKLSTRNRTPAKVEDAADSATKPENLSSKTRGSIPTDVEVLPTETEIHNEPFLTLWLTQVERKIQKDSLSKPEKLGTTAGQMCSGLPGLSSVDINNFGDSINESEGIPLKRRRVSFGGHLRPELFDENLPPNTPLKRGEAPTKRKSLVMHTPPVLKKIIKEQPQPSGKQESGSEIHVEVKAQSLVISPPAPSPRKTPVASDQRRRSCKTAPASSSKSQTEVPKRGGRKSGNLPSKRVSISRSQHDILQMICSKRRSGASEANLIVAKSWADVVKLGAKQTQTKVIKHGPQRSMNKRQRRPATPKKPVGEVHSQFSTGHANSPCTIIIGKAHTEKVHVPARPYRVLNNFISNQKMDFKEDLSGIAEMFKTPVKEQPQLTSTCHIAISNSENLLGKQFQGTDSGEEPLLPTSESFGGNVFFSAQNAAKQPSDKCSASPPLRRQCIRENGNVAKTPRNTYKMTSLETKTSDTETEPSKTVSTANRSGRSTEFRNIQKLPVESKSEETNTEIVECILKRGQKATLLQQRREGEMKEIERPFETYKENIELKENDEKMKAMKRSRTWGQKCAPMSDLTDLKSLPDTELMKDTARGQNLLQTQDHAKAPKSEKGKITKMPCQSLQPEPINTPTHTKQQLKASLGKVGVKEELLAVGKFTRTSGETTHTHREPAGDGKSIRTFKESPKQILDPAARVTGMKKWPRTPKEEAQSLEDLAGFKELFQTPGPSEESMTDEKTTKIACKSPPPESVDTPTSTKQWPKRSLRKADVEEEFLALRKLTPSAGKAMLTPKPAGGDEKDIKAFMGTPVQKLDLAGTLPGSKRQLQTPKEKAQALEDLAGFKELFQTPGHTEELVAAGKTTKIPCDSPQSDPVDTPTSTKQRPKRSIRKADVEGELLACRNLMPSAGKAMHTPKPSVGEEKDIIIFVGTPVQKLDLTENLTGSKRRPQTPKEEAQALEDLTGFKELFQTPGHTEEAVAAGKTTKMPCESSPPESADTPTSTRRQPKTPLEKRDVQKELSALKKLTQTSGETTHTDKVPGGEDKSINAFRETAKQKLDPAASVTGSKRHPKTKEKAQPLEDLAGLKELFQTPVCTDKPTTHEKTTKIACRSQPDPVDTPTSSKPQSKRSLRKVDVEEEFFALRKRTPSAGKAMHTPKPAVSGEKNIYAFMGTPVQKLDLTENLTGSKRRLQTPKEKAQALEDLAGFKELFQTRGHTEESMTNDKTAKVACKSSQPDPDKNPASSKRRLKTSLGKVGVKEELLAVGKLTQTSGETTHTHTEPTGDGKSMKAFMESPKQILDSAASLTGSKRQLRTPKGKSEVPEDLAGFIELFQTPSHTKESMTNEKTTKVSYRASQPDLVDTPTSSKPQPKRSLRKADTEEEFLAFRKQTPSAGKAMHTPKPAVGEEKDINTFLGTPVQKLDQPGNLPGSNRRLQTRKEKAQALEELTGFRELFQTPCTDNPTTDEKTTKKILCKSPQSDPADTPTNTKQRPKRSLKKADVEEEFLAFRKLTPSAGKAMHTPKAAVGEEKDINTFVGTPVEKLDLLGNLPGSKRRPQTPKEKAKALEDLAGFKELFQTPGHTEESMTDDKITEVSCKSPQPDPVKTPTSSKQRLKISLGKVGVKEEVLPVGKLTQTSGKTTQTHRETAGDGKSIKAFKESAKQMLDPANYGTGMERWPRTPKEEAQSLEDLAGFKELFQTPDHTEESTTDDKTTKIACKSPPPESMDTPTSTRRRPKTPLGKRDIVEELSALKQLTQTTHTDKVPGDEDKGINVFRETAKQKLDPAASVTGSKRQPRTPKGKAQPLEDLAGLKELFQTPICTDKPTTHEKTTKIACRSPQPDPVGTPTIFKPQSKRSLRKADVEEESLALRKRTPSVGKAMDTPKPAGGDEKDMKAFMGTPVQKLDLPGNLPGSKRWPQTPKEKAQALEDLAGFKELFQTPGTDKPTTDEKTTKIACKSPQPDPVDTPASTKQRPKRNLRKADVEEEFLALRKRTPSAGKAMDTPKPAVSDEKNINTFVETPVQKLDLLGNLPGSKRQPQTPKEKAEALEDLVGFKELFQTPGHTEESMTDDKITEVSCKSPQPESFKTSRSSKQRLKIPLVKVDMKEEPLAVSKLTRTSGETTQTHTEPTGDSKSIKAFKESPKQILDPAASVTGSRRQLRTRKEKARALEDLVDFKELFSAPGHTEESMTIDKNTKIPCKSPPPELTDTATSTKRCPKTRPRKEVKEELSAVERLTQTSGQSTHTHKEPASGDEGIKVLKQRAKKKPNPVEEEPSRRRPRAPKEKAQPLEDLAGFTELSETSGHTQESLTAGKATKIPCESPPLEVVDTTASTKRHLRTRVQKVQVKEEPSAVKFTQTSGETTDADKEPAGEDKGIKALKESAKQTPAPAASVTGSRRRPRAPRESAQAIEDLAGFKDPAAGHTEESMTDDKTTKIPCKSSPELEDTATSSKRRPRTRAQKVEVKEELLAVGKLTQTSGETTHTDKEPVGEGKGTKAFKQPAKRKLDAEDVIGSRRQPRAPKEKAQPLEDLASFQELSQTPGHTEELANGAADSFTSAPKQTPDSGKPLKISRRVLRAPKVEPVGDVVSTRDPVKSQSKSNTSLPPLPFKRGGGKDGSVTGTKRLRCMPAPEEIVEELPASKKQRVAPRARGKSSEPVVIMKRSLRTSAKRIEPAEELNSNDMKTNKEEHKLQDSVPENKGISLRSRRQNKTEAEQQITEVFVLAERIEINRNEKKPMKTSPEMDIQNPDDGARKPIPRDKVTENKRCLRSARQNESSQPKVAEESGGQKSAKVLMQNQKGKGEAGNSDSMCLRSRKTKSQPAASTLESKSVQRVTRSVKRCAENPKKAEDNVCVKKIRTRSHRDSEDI
UniProt Q00013: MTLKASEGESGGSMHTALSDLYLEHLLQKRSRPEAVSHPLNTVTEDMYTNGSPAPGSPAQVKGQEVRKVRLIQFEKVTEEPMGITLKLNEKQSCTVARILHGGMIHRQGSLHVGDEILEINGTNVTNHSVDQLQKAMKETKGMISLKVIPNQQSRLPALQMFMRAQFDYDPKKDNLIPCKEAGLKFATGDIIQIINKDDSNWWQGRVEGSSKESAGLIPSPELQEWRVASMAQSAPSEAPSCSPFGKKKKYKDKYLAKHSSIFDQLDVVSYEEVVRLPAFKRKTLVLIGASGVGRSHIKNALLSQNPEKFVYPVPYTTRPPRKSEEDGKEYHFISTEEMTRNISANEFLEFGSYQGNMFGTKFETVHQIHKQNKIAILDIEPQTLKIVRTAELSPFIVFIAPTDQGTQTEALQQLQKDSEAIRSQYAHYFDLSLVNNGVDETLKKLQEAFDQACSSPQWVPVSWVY

This is one part of the list.

Compound in this test: CC(C)C1=C2N=C(C=C(N2N=C1)NCC3=CC=CC=C3)NCCCCCCN
Put plainly: log2 fold change, soluble protein after heating vs DMSO (PISA); higher = thermal stabilisation; K562 lysate, 10 uM; active = over 0.2 and 3.5 SD of the protein, either way, in both replicates (recomputed). The essentials:
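Thermal stability, expressed as log-two fold change relative to solvent controls, is given from duplicates. Crude K562 extract in PBS pH 7.4 with 1 mM MgCl2, at 1 mg/mL protein, was treated with 10 μM compound for 30 min and heated in aliquots for 3 min across 48°C-58°C. After pooling, adjustment to 0.5% NP-40 at 4°C and centrifugation at 21,000xg for 90 min, supernatant protein was measured by TMTpro 16plex LC-MS/MS with channel sums equalised.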
In the case of MGST1 (UniProt P10620), the log2 fold change is inactive: -0.002.
Then MRI1 (UniProt Q9BV20), with inactive: -0.021; and MOB4 (UniProt Q9Y3A3), with inactive: -0.012.
Then MKNK1 (UniProt Q9BUB5), with inactive: 0.017; and MIF4GD isoform 3 (UniProt A9UHW6), with inactive: 0.016; and MRPL1 (UniProt Q9BYD6), with inactive: 0.039.
For MLX (UniProt Q9UH92) the value was inactive: -0.017; for MPI (UniProt P34949), inactive: -0.039; for MRGBP (UniProt Q9NV56), inactive: 0.04.
For the target MMTAG2 (UniProt Q9BU76), the log2 fold change was inactive: -0.055.
Then MPZL1 (UniProt O95297), with inactive: -0.035.
For MRPL23 (UniProt Q16540) the value was inactive: 0.001; for MPST isoform 2 (UniProt P25325), inactive: 0.018.
Turning to MRPL15 (UniProt Q9P015), the log2 fold change is inactive: -0.01.
For MICOS10 (UniProt Q5TGZ0) the value was inactive: 0.026.
For MIA2 (UniProt Q96PC5), the log2 fold change is inactive: 0.091.
For MKI67 (UniProt P46013) the value was inactive: 0.009; for MKRN1 (UniProt Q9UHC7), inactive: -0.018; for MRPL14 (UniProt Q6P1L8), inactive: -0.038.
Regarding MICALL1 (UniProt Q8N3F8), the log2 fold change was inactive: 0.009.
For MICALL2 (UniProt Q8IY33) the value was inactive: -0.051.
In the case of MINDY3 (UniProt Q9H8M7), the log2 fold change was inactive: -0.013.
For MPP1 (UniProt Q00013) the value was inactive: 0.02.
